Compound in this test: CCc1cnccc1C(=O)Nc1cc2c(cc1F)NC(=O)CC2
Nature of the test: melting temperature shift (DMSO Tm minus MBE1-treated Tm) in cellular thermal proteome profiling; higher = less thermal stabilization by MBE1 (negative = stabilized by MBE1). The following applies: A375.

Protein sequences, listed by entry. Tags and fused reporters are not part of them. Lines headed by an entry give the natural chain unless they say otherwise; changes in a name come on top.
UniProt Q14919: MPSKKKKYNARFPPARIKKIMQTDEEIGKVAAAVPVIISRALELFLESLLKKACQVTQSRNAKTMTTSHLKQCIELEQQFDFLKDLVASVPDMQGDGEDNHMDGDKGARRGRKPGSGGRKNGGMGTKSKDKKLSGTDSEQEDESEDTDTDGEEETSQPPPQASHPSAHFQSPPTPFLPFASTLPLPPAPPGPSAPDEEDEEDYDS
UniProt Q15048: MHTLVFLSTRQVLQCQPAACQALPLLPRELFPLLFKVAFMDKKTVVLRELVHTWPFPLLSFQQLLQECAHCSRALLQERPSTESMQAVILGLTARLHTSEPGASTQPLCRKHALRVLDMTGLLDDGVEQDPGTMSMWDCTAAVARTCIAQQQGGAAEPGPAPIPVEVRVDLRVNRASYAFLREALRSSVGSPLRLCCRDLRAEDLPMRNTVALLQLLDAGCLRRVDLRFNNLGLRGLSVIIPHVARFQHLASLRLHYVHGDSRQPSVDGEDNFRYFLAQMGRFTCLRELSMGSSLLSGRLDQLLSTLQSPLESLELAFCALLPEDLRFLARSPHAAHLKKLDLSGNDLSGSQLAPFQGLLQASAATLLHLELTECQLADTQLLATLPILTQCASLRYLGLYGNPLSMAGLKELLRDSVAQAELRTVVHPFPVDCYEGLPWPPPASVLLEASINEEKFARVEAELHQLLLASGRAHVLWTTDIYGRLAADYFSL
UniProt Q13451: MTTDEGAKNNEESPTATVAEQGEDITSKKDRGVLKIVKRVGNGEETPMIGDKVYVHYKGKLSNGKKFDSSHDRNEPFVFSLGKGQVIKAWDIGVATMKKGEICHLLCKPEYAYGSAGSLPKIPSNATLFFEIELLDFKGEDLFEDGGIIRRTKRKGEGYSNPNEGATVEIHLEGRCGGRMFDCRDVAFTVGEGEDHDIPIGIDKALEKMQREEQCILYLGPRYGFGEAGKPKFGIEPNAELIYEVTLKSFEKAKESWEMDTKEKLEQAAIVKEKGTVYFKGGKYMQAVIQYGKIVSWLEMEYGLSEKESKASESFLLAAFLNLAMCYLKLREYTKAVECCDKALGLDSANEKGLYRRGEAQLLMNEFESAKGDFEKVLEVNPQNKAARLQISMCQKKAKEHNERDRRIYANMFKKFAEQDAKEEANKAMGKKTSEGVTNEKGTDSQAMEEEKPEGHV
UniProt Q15025: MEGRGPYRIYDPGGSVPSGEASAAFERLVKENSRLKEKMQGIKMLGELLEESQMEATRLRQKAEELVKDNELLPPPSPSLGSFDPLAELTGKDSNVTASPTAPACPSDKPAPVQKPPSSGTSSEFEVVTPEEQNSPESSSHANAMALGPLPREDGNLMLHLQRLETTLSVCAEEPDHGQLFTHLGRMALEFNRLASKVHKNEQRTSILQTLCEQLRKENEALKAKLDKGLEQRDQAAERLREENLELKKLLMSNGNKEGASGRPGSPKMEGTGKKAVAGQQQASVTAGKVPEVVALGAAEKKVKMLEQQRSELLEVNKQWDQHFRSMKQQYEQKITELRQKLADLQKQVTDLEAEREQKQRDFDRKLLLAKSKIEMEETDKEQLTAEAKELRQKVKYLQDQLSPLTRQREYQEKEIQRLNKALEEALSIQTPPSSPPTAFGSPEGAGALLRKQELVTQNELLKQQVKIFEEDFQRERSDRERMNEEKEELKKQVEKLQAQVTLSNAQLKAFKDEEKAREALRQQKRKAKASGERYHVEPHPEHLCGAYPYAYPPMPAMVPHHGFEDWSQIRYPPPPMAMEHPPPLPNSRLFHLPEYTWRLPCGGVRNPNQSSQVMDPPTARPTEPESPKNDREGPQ
UniProt Q14318: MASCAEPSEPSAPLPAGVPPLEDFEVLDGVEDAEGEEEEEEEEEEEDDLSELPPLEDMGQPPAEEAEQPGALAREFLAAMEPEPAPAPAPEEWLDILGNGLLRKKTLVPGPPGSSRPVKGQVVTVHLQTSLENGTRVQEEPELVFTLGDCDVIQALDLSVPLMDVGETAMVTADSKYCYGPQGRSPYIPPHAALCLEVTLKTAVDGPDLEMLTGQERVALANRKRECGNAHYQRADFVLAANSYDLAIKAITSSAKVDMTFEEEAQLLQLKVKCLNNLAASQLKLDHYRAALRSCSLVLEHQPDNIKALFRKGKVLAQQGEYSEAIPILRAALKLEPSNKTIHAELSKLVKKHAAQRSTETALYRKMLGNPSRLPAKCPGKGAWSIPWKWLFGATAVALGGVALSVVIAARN
UniProt Q13217: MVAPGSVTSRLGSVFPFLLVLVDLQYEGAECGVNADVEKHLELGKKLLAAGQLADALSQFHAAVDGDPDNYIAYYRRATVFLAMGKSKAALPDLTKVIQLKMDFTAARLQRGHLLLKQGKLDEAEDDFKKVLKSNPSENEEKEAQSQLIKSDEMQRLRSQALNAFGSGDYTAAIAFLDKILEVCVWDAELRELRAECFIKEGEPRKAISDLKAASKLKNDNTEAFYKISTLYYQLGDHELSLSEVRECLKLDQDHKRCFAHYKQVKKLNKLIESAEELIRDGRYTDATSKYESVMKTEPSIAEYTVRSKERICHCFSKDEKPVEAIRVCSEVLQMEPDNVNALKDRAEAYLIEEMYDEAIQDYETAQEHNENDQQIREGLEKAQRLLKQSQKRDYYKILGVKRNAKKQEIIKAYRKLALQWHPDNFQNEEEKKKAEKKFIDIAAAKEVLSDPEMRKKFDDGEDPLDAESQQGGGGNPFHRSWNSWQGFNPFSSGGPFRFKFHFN
UniProt Q13257, whole entry: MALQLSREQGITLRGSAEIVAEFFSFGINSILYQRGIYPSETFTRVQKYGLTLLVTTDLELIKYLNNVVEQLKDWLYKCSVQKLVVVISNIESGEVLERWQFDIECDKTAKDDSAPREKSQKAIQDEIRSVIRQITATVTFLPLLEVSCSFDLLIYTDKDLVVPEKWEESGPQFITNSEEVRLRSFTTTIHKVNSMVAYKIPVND
UniProt Q13952: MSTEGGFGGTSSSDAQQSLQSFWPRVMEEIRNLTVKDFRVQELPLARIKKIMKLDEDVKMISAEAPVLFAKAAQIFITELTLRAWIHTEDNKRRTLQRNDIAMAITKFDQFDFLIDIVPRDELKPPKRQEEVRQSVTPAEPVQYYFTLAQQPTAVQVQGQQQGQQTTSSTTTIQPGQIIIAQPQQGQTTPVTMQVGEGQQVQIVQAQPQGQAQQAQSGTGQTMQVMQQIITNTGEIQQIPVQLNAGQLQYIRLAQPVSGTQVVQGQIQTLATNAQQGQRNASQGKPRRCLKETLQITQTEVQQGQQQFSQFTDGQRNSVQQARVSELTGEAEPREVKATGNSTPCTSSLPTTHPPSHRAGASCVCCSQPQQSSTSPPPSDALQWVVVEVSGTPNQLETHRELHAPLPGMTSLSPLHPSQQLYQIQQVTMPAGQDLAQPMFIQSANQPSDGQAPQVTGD
UniProt Q13868, whole entry: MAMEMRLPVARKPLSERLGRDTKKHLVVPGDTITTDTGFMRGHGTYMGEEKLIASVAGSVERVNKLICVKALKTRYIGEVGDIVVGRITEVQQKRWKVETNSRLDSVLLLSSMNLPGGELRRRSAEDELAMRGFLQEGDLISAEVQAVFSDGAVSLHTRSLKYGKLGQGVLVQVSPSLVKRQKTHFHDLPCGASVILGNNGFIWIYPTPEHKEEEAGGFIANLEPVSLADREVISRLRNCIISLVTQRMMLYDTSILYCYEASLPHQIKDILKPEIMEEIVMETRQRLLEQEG
UniProt Q13409, whole entry: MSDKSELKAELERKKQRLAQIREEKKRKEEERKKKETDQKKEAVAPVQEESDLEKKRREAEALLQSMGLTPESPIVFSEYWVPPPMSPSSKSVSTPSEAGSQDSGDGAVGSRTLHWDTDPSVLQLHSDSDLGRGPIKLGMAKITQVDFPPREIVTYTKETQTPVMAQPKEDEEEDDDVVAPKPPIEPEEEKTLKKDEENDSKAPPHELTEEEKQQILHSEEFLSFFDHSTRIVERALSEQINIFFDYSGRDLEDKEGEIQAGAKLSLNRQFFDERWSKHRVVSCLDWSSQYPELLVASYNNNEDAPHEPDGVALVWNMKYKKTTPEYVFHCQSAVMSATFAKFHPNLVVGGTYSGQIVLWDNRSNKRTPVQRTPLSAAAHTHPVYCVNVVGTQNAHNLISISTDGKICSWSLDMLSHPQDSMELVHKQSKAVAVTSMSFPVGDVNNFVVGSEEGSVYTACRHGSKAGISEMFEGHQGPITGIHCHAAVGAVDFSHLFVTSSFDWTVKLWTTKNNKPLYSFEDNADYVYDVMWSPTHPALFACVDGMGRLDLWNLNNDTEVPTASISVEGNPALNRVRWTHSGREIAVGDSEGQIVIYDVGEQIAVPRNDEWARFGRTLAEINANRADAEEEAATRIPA
UniProt Q13423: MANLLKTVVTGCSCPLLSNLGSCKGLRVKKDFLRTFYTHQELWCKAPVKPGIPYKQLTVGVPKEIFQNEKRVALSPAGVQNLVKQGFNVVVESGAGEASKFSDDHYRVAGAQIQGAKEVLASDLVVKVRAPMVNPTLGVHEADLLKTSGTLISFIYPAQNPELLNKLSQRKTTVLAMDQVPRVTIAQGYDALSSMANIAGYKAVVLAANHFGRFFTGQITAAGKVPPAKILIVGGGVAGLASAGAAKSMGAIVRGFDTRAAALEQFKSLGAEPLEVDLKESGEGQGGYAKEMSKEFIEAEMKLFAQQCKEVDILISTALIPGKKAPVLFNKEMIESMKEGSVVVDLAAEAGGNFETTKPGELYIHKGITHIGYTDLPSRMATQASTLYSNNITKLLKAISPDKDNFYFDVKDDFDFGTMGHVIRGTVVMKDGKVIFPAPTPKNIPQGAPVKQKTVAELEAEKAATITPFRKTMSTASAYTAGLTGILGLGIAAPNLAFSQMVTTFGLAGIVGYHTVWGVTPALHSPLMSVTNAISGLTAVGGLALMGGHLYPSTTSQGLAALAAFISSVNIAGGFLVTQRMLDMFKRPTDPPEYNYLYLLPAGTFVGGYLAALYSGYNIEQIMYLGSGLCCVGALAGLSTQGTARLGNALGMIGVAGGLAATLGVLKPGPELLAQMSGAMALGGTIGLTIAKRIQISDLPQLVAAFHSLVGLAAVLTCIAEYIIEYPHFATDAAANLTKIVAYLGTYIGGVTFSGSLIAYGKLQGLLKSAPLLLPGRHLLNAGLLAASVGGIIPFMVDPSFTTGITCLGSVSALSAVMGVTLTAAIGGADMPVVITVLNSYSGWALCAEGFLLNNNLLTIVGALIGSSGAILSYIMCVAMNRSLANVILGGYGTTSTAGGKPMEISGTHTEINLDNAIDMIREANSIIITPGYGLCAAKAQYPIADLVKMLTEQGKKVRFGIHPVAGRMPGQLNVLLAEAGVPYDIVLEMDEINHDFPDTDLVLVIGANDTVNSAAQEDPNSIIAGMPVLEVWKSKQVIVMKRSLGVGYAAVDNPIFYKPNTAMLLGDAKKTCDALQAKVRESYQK
UniProt Q13277: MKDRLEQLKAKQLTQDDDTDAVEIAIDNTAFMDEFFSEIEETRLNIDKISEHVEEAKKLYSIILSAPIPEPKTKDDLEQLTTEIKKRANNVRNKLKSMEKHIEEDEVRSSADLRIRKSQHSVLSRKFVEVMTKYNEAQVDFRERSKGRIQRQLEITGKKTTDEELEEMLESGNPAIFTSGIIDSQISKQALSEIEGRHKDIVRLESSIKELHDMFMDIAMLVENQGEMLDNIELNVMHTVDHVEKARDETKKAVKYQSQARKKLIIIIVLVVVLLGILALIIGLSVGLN
UniProt Q13155: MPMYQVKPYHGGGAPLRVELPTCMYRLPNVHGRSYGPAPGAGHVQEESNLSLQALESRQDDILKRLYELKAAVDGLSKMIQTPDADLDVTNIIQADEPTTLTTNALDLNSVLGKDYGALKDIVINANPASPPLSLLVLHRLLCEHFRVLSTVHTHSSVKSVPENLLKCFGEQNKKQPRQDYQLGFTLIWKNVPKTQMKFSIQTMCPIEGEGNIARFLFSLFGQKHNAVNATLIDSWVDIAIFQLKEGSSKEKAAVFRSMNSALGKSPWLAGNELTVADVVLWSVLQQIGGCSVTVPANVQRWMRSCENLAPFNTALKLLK
UniProt Q14498: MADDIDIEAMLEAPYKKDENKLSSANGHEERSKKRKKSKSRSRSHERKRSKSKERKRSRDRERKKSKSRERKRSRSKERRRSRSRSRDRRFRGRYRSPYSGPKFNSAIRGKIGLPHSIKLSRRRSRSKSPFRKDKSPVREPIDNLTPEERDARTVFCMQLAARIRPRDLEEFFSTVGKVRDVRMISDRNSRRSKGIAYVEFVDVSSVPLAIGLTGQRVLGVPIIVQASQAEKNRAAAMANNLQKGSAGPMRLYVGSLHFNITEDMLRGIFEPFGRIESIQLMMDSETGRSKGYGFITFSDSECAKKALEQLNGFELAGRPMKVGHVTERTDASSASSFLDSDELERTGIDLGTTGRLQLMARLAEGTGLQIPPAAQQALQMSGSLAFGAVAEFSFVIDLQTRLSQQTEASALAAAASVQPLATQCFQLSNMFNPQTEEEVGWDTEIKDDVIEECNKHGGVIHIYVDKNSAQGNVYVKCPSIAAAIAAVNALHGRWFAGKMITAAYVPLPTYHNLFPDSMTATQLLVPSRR

This is one part of the list. Single values of this set are uncertain.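 Tm was set to 64 °C where no melting was found, and many curves are irregular.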

Turning to GAB1 (UniProt Q13480), the melting temperature shift (MBE1 concentration: 1 uM) is 1.09 °C. Same read-out and setting: the figure for SNW1 (UniProt Q13573) is -2.49 °C. In the case of IQGAP2 (UniProt Q13576), the melting temperature shift (MBE1 concentration: 100 nM) is 1.54 °C and the melting temperature shift (MBE1 concentration: 1 uM) came out at 0.299 °C. On the same counts, the results for DRAP1 (UniProt Q14919) are -3.69 °C and -0.118 °C.

With UniProt Q14686, the melting temperature shift was -1.63 °C (MBE1 concentration: 100 nM) and -0.513 °C (MBE1 concentration: 1 uM). The matching figures for ADAM15 (UniProt Q13444): -1.16 °C and 1.43 °C.

With AAMP (UniProt Q13685), the melting temperature shift was -1.19 °C (MBE1 concentration: 100 nM) and -0.922 °C (MBE1 concentration: 1 uM). Regarding UniProt Q15048, for the setting “MBE1 concentration: 100 nM”, the melting temperature shift came to 1.07 °C. As to SPCS2 (UniProt Q15005), the melting temperature shift (MBE1 concentration: 100 nM) is -0.329 °C and the melting temperature shift (MBE1 concentration: 1 uM) was -0.186 °C. On the same counts, the results for UniProt Q13574 are 0.598 °C and -1.22 °C. The matching figures for SNTB2 (UniProt Q13425): -0.0256 °C and -0.165 °C.

For TRIM25 (UniProt Q14258), the melting temperature shift was -0.574 °C (MBE1 concentration: 100 nM) and -0.527 °C (MBE1 concentration: 1 uM). With USP4 (UniProt Q13107), the melting temperature shift is -0.993 °C (MBE1 concentration: 100 nM) and 0.00641 °C (MBE1 concentration: 1 uM). The matching figures for ENDOG (UniProt Q14249): -0.753 °C and -0.0268 °C.

As for FKBP5 (UniProt Q13451), the melting temperature shift by setting is: (MBE1 concentration: 100 nM) -0.0769 °C; (MBE1 concentration: 1 uM) -0.237 °C.

As for PPFIA1 (UniProt Q13136), the melting temperature shift is, setting by setting: (MBE1 concentration: 100 nM) -0.254 °C; (MBE1 concentration: 1 uM) 0.108 °C. On the same counts, the results for SF3B2 (UniProt Q13435) are -0.592 °C and 0.531 °C. On to TCOF1 (UniProt Q13428), for which the melting temperature shift is, setting by setting: (MBE1 concentration: 100 nM) -2.11 °C; (MBE1 concentration: 1 uM) -2.37 °C. For FAM50A (UniProt Q14320), the melting temperature shift (MBE1 concentration: 100 nM) was -0.659 °C and the melting temperature shift (MBE1 concentration: 1 uM) was -1.09 °C. On the same counts, the results for TNIP1 (UniProt Q15025) are -0.153 °C and 0.0122 °C. The matching figures for FKBP8 (UniProt Q14318): 0.0141 °C and -0.127 °C. MORF4L2 (UniProt Q15014): the melting temperature shift is -1.33 °C (MBE1 concentration: 100 nM) and 12.4 °C (MBE1 concentration: 1 uM). On the same counts, the results for DNAJC3 (UniProt Q13217) are -0.872 °C and -0.349 °C. The matching figures for MAD2L1 (UniProt Q13257): -0.47 °C and -0.763 °C.

For NFYC (UniProt Q13952), the melting temperature shift (MBE1 concentration: 100 nM) was -0.396 °C and the melting temperature shift (MBE1 concentration: 1 uM) is -0.782 °C. As for CBLB (UniProt Q13191), the melting temperature shift was -0.00611 °C (MBE1 concentration: 100 nM) and 0.353 °C (MBE1 concentration: 1 uM).

As for DSG2 (UniProt Q14126), the melting temperature shift (MBE1 concentration: 100 nM) is -1.03 °C and the melting temperature shift (MBE1 concentration: 1 uM) is 0.175 °C. The matching figures for PPP2R5D (UniProt Q14738): -0.409 °C and -0.0329 °C.

Turning to EMC2 (UniProt Q15006), the melting temperature shift is -0.825 °C (MBE1 concentration: 100 nM) and -0.409 °C (MBE1 concentration: 1 uM). The matching figures for SPTAN1 (UniProt Q13813): -0.496 °C and 0.0183 °C. With PEX6 (UniProt Q13608), the melting temperature shift reads like this: (MBE1 concentration: 100 nM) -0.195 °C; (MBE1 concentration: 1 uM) 0.421 °C. The matching figures for SART3 (UniProt Q15020): 0.263 °C and -0.0366 °C. As to MRPL49 (UniProt Q13405), the melting temperature shift reads like this: (MBE1 concentration: 100 nM) 0.568 °C; (MBE1 concentration: 1 uM) 1.17 °C. Turning to EXOSC2 (UniProt Q13868), the melting temperature shift is -0.916 °C (MBE1 concentration: 100 nM) and -1.44 °C (MBE1 concentration: 1 uM).

As to MTMR1 (UniProt Q13613), the melting temperature shift is 0.321 °C (MBE1 concentration: 100 nM) and 0.0488 °C (MBE1 concentration: 1 uM). As for HDAC1 (UniProt Q13547), the melting temperature shift is, setting by setting: (MBE1 concentration: 100 nM) -0.32 °C; (MBE1 concentration: 1 uM) -0.921 °C.

Consider EIF4A2 (UniProt Q14240), for which the melting temperature shift (MBE1 concentration: 100 nM) was -0.107 °C and the melting temperature shift (MBE1 concentration: 1 uM) is 0.925 °C. Consider FRG1 (UniProt Q14331), for which the melting temperature shift worked out at 1.23 °C (MBE1 concentration: 100 nM) and 1.22 °C (MBE1 concentration: 1 uM).

Consider UniProt Q14191, for which the melting temperature shift is, setting by setting: (MBE1 concentration: 100 nM) -1.24 °C; (MBE1 concentration: 1 uM) -0.436 °C. Regarding SMC1A (UniProt Q14683), the melting temperature shift runs as follows: (MBE1 concentration: 100 nM) 0.0855 °C; (MBE1 concentration: 1 uM) 0.464 °C.

In the case of UniProt Q13131, the melting temperature shift (MBE1 concentration: 100 nM) amounted to 0.641 °C and the melting temperature shift (MBE1 concentration: 1 uM) was 0.55 °C. Turning to CUL3 (UniProt Q13618), the melting temperature shift runs as follows: (MBE1 concentration: 100 nM) -0.51 °C; (MBE1 concentration: 1 uM) 0.624 °C. For ACACA (UniProt Q13085), the melting temperature shift by setting is: (MBE1 concentration: 100 nM) -0.621 °C; (MBE1 concentration: 1 uM) -0.395 °C.

As to DYNC1I2 (UniProt Q13409), the melting temperature shift is -0.879 °C (MBE1 concentration: 100 nM) and 0.425 °C (MBE1 concentration: 1 uM). As for GOLGB1 (UniProt Q14789), the melting temperature shift was -1.1 °C (MBE1 concentration: 100 nM) and -0.678 °C (MBE1 concentration: 1 uM). On the same counts, the results for ZNF638 (UniProt Q14966) are -1.31 °C and -1.16 °C.

Regarding NCAPD2 (UniProt Q15021), the melting temperature shift is -0.923 °C (MBE1 concentration: 100 nM) and -0.511 °C (MBE1 concentration: 1 uM). The matching figures for IK (UniProt Q13123): -0.292 °C and -0.0612 °C.

For NNT (UniProt Q13423), the melting temperature shift (MBE1 concentration: 100 nM) was -0.443 °C and the melting temperature shift (MBE1 concentration: 1 uM) was -0.355 °C. The matching figures for PSMD2 (UniProt Q13200): -0.627 °C and 0.369 °C. For UniProt Q13188, the melting temperature shift is -0.309 °C (MBE1 concentration: 100 nM) and -0.449 °C (MBE1 concentration: 1 uM).

Turning to CAPRIN1 (UniProt Q14444), the melting temperature shift (MBE1 concentration: 100 nM) is -0.99 °C and the melting temperature shift (MBE1 concentration: 1 uM) is -1.58 °C. The matching figures for STX3 (UniProt Q13277): -0.995 °C and -0.629 °C.

For the target THOC5 (UniProt Q13769), the melting temperature shift (MBE1 concentration: 100 nM) turned out to be 0.488 °C and the melting temperature shift (MBE1 concentration: 1 uM) amounted to 0.305 °C.

Consider TFDP1 (UniProt Q14186), for which the melting temperature shift is, setting by setting: (MBE1 concentration: 100 nM) -0.377 °C; (MBE1 concentration: 1 uM) -1.17 °C. On the same counts, the results for KRR1 (UniProt Q13601) are -0.128 °C and -0.557 °C. Take UniProt Q14533: the melting temperature shift by setting is: (MBE1 concentration: 100 nM) -3.46 °C; (MBE1 concentration: 1 uM) -10.1 °C.

For AIMP2 (UniProt Q13155), the melting temperature shift (MBE1 concentration: 100 nM) is -1.13 °C and the melting temperature shift (MBE1 concentration: 1 uM) is 0.254 °C.

Regarding CTBP1 (UniProt Q13363), the melting temperature shift is -1.27 °C (MBE1 concentration: 100 nM) and 1.2 °C (MBE1 concentration: 1 uM). The matching figures for RBM39 (UniProt Q14498): -0.837 °C and -0.917 °C. On the same counts, the results for POLD3 (UniProt Q15054) are -0.365 °C and -0.288 °C.

With MTA1 (UniProt Q13330), the melting temperature shift (MBE1 concentration: 100 nM) was -1.33 °C and the melting temperature shift (MBE1 concentration: 1 uM) was -0.0448 °C.

Take UniProt Q13206: the melting temperature shift is -0.739 °C (MBE1 concentration: 100 nM) and -0.24 °C (MBE1 concentration: 1 uM).

In the case of LBR (UniProt Q14739), the melting temperature shift was -0.268 °C (MBE1 concentration: 100 nM) and 0.429 °C (MBE1 concentration: 1 uM). The matching figures for CIRBP (UniProt Q14011): -1.34 °C and 0.557 °C. Consider KANK1 (UniProt Q14678), for which the melting temperature shift is, setting by setting: (MBE1 concentration: 100 nM) -0.249 °C; (MBE1 concentration: 1 uM) -0.103 °C. In the case of MVP (UniProt Q14764), the melting temperature shift is -0.657 °C (MBE1 concentration: 100 nM) and 0.208 °C (MBE1 concentration: 1 uM). The matching figures for FAT1 (UniProt Q14517): -1.2 °C and -0.463 °C. On the same counts, the results for DHX34 (UniProt Q14147) are -0.755 °C and -0.532 °C.
